# The list does not hold the whole screen: it gathers tests that were run many times, whatever their T/C, doses with no T/C, and many T/C values between a quarter and a half above the control. Further doses and runs are listed elsewhere. T/C: endpoint of the treated group in % of that of the vehicle group. Some doses have a count of surviving animals in place of a T/C: the source files T/C as zero there, which appears to mark a toxic dose or a test without result, not a measured value. Some doses without a T/C left all or most animals alive at the check, yet need not have been tolerated: survival well below the control is almost never listed, so the zero probably covers shortened survival too. Counts of survivors are from the toxicity check (mostly the fifth day) where no day follows; animals may have died later. Schedule codes are those of the source, taken here to give the interval after Q, in days (D) or hours (H), and the number of doses after X. Some schedule codes hold Z or #, which are not explained here. Some doses were run more than once; the results are listed from low to high. For survival time, this PubChem deposit counts one and a half times the control or more as active, and values a quarter to a half above the control carry no call in these data; other NCI protocols may use other cut-offs.
# System: L1210 leukemia ip in BDF1 mice, survival T/C
# Experiment: NCI In Vivo Anticancer Drug Screen. Data for tumor model L1210 Leukemia (intraperitoneal) in B6D2F1 (BDF1) mice
# Conditions: T/C endpoint: mean survival time, higher T/C = longer survival
# [1] = dose: 200.0 mg/kg/injection, schedule: Q04DX003 (ip), vehicle: saline
# [2] = dose: 400.0 mg/kg/injection, schedule: Q01DX001 (ip), vehicle: saline
# [3] = dose: 400.0 mg/kg/injection, schedule: Q04DX003 (ip), vehicle: Klucel (hydroxypropylcellulose) (HPC)
# [4] = dose: 200.0 mg/kg/injection, schedule: Q04DX003 (ip), vehicle: saline with Tween-80
# [5] = dose: 100.0 mg/kg/injection, schedule: Q04DX003 (ip), vehicle: Klucel (hydroxypropylcellulose) (HPC)
# [6] = dose: 400.0 mg/kg/injection, schedule: Q04DX002 (ip), vehicle: Klucel (hydroxypropylcellulose) (HPC)
# [7] = dose: 100.0 mg/kg/injection, schedule: Q01DX001 (ip), vehicle: saline
# [8] = dose: 200.0 mg/kg/injection, schedule: Q01DX001 (ip), vehicle: saline
compound,measurement,setting,value
O=C1OC(=O)C2C3c4ccccc4C(c4ccccc43)C12 (stereo not drawn),survivor count,"dose: 150.0 mg/kg/injection, schedule: Q01DX009 (ip), vehicle: saline",3 of 6
same,survivor count,[1],3 of 6
same,survivor count,"dose: 225.0 mg/kg/injection, schedule: Q01DX009 (ip), vehicle: saline",4 of 6
same,survivor count,"dose: 335.0 mg/kg/injection, schedule: Q01DX009 (ip), vehicle: saline",0 of 6
same,survivor count,[2],0 of 6
same,survivor count,[3],2 of 6
N#Cc1cc[n+](Cc2ccc([N+](=O)[O-])cc2)cc1,survivor count,[2],0 of 6
CN(C)CCCOc1c2ccccc2cc2ccccc12,survivor count,"dose: 32.0 mg/kg/injection, schedule: Q01DX015 (ip), vehicle: carboxymethylcellulose (CMC)",3 of 6
CCC(=O)OC1CCC2(C)C(=CCC3C2CCC2(C)C(C(C)CCCC(C)C)CCC32)C1 (stereo not drawn),survivor count,"dose: 400.0 mg/kg/injection, schedule: Q01DX001 (ip), vehicle: other",3 of 3
Cn1nc(N)c2nccnc21,survivor count,"dose: 200.0 mg/kg/injection, schedule: Q01DX009 (ip), vehicle: saline",6 of 6
same,survivor count,"dose: 400.0 mg/kg/injection, schedule: Q04DX003 (ip), vehicle: alcohol",1 of 6
O=[N+]([O-])c1cc(S(=O)(=O)c2ccc(Cl)c([N+](=O)[O-])c2)ccc1Cl,survivor count,"dose: 100.0 mg/kg/injection, schedule: Q01DX009 (ip), vehicle: Klucel (hydroxypropylcellulose) (HPC)",6 of 6
O=C1NC2C(NC(=O)N2Cl)N1Cl (stereo not drawn),survivor count,"dose: 20.0 mg/kg/injection, schedule: Q01DX Z (ip), vehicle: carboxymethylcellulose (CMC)",6 of 6
same,survivor count,"dose: 80.0 mg/kg/injection, schedule: Q01DX Z (ip), vehicle: carboxymethylcellulose (CMC)",1 of 6
same,survivor count,"dose: 160.0 mg/kg/injection, schedule: Q01DX Z (ip), vehicle: carboxymethylcellulose (CMC)",0 of 6
same,survivor count,[4],0 of 6
COc1cccc(/C=C/[N+](=O)[O-])c1,survivor count,[5],3 of 6
same,survivor count,"dose: 360.0 mg/kg/injection, schedule: Q04DX003 (ip), vehicle: saline with Tween-80",0 of 6
COC1CC2C[CH]([Hg][Cl])C1C2 (stereo not drawn),survivor count,"dose: 50.0 mg/kg/injection, schedule: Q01DX009 (ip), vehicle: saline with Tween-80",1 of 3
same,survivor count,"dose: 100.0 mg/kg/injection, schedule: Q01DX009 (ip), vehicle: saline with Tween-80",0 of 3
same,survivor count,"dose: 200.0 mg/kg/injection, schedule: Q01DX009 (ip), vehicle: saline with Tween-80",0 of 3
C/C(=N/N(C)C)c1ccccn1,survivor count,"dose: 400.0 mg/kg/injection, schedule: Q01DX009 (ip), vehicle: saline with Tween-80",3 of 6
CC1c2c(c(-c3ccccc3)c3ccccc3c2-c2ccccc2)S1(=O)=O (stereo not drawn),T/C,[6],125 % of control
Cc1n(CC(C)C)c2c([n+]1CC(=O)c1ccc([N+](=O)[O-])cc1)C(=O)c1ccccc1C2=O,survivor count,"dose: 40.0 mg/kg/injection, schedule: Q01DX001 (ip), vehicle: carboxymethylcellulose (CMC)",0 of 4
same,survivor count,"dose: 50.0 mg/kg/injection, schedule: Q01DX001 (ip), vehicle: carboxymethylcellulose (CMC)",0 of 4
same,survivor count,"dose: 80.0 mg/kg/injection, schedule: Q01DX001 (ip), vehicle: carboxymethylcellulose (CMC)",0 of 4
same,survivor count,"dose: 100.0 mg/kg/injection, schedule: Q01DX001 (ip), vehicle: carboxymethylcellulose (CMC)",0 of 4
same,survivor count,"dose: 200.0 mg/kg/injection, schedule: Q01DX001 (ip), vehicle: carboxymethylcellulose (CMC)",0 of 4
same,survivor count,"dose: 400.0 mg/kg/injection, schedule: Q01DX001 (ip), vehicle: carboxymethylcellulose (CMC)",0 of 4
Cc1c2oc3c(C)c(N)cc(C(=O)NC4C(=O)NC(C(C)C)C(=O)N5CCCC5C(=O)N(C)CC(=O)N(C)C(C(C)C)C(=O)OC4C)c3nc-2c(C(=O)NC2C(=O)NC(C(C)C)C(=O)N3CCCC3C(=O)N(C)CC(=O)N(C)C(C(C)C)C(=O)OC2C)c(N)c1=O (stereo not drawn),T/C,"dose: 100.0 micrograms/kg/injection, schedule: Q01DX009 (ip), vehicle: saline + alcohol",133 % of control
same,survivor count,"dose: 400.0 micrograms/kg/injection, schedule: Q01DX009 (ip), vehicle: saline + alcohol",7 of 8
same,T/C,"dose: 400.0 micrograms/kg/injection, schedule: Q04DX003 (ip), vehicle: saline + alcohol",132 % of control
same,T/C,"dose: 600.0 micrograms/kg/injection, schedule: Q04DX003 (ip), vehicle: saline + alcohol",132 % of control
same,survivor count,"dose: 1600.0 micrograms/kg/injection, schedule: Q04DX003 (ip), vehicle: saline + alcohol",4 of 8
CC1(C)N=C(N)N=C(N)N1c1cccc(Cl)c1Cl,survivor count,[5],0 of 6
same,survivor count,"dose: 200.0 mg/kg/injection, schedule: Q04DX003 (ip), vehicle: Klucel (hydroxypropylcellulose) (HPC)",0 of 6
same,survivor count,[3],0 of 6
CC(C)c1nc(C=O)c(C=O)n1Cc1ccccc1,survivor count,"dose: 100.0 mg/kg/injection, schedule: Q04DX003 (ip), vehicle: carboxymethylcellulose (CMC)",6 of 6
same,survivor count,"dose: 200.0 mg/kg/injection, schedule: Q04DX002 (ip), vehicle: other",0 of 3
same,survivor count,"dose: 200.0 mg/kg/injection, schedule: Q04DX003 (ip), vehicle: carboxymethylcellulose (CMC)",6 of 6
same,survivor count,[6],3 of 3
same,survivor count,"dose: 400.0 mg/kg/injection, schedule: Q04DX002 (ip), vehicle: other",0 of 3 and 0 of 6
same,survivor count,"dose: 400.0 mg/kg/injection, schedule: Q04DX003 (ip), vehicle: carboxymethylcellulose (CMC)",6 of 6
CCOC(=O)c1ccc(N=NNc2ccc(C(=O)OCC)cc2)cc1,survivor count,"dose: 100.0 mg/kg/injection, schedule: Q01DX Z (ip), vehicle: other",6 of 6
same,survivor count,"dose: 300.0 mg/kg/injection, schedule: Q01DX Z (ip), vehicle: other",6 of 6
COc1cc2c(cc1OC)-c1cc3ccc(OC)c(OC)c3c[n+]1CC2,survivor count,"dose: 100.0 mg/kg/injection, schedule: Q04DX002 (ip), vehicle: Klucel (hydroxypropylcellulose) (HPC)",0 of 3
same,survivor count,"dose: 200.0 mg/kg/injection, schedule: Q04DX002 (ip), vehicle: Klucel (hydroxypropylcellulose) (HPC)",0 of 3
same,survivor count,[6],0 of 3
CCNC(=S)Nc1ccc(Cl)cc1,survivor count,[4],0 of 6
same,survivor count,"dose: 400.0 mg/kg/injection, schedule: Q04DX003 (ip), vehicle: saline with Tween-80",0 of 6
Cc1ccc(CN(C)N=Nc2ccccc2)cc1,survivor count,[6],1 of 3
Oc1ccc(N=Cc2ccccc2O)cc1,T/C,"dose: 175.0 mg/kg/injection, schedule: Q01DX Z (ip), vehicle: carboxymethylcellulose (CMC)",125 % of control
same,T/C,"dose: 270.0 mg/kg/injection, schedule: Q01DX015 (ip), vehicle: steroid suspending solution",137 % of control
same,T/C,"dose: 400.0 mg/kg/injection, schedule: Q01DX015 (ip), vehicle: steroid suspending solution",141 % of control
same,survivor count,"dose: 600.0 mg/kg/injection, schedule: Q01DX Z (ip), vehicle: carboxymethylcellulose (CMC)",0 of 6
Nc1nc2nc(I)[nH]c2c(=O)[nH]1,survivor count,"dose: 80.0 mg/kg/injection, schedule: Q01DX001 (ip), vehicle: saline",0 of 6
same,survivor count,[7],0 of 4
same,survivor count,[8],1 of 4
same,survivor count,[2],1 of 4
NCC(=O)NCCCCCCCCCCNC(=O)CN,survivor count,"dose: 300.0 mg/kg/injection, schedule: Q01DX Z (ip), vehicle: saline",3 of 6
O=C(CCl)c1c(O)[n+](Cc2ccccc2)c2ccccn12,survivor count,[7],0 of 6
same,survivor count,[8],1 of 6
same,survivor count,[2],0 of 6
OCCCN1CCN(CCCC2c3ccccc3Sc3ccc(Cl)cc32)CC1 (stereo not drawn),survivor count,"dose: 100.0 mg/kg/injection, schedule: Q04DX003 (ip), vehicle: saline",3 of 4
same,survivor count,[1],0 of 4
same,survivor count,"dose: 400.0 mg/kg/injection, schedule: Q04DX003 (ip), vehicle: saline",0 of 4
CC(C)=CCc1ccc(O)cc1,survivor count,"dose: 200.0 mg/kg/injection, schedule: Q01DX009 (ip), vehicle: saline + alcohol",5 of 6
same,survivor count,"dose: 400.0 mg/kg/injection, schedule: Q01DX009 (ip), vehicle: saline + alcohol",1 of 6

# From PubChem BioAssay AID248 (DTP/NCI, 2004)
